2 molecules from patent publication US20110045008A1 can be followed below.

Protein sequences, listed by entry. Tags and fused reporters are not part of them. Residues count along the entry.
UniProt P05106, residues 27-788: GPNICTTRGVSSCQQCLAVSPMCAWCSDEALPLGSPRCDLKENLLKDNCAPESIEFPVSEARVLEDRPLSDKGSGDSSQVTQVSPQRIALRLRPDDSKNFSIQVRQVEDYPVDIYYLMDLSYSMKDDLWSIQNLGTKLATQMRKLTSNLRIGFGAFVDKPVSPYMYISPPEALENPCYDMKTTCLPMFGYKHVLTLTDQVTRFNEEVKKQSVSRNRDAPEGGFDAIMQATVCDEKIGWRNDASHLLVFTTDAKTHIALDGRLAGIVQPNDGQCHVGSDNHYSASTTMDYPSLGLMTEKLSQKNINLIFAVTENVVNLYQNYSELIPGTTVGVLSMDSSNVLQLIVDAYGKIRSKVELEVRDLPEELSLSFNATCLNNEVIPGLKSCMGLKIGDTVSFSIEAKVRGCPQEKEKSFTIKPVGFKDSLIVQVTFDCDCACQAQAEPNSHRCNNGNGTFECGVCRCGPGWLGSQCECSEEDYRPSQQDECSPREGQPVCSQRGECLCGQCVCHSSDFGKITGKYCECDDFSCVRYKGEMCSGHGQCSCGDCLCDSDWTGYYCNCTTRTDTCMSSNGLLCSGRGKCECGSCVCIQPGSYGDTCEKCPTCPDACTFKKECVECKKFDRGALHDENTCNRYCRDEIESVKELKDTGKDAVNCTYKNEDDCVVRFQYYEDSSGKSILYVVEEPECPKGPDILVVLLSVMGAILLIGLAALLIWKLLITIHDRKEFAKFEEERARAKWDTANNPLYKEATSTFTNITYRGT

Results are given in words; binding and its absence hold for the method and conditions named. Some binding calls cover weakened binding; strength is not graded here. For some assays here: Sequences can lack the tags named with a protein.

The target of assay [1] is platelet GPIIIa (integrin beta3) on platelets (human) (UniProt P05106). Put plainly: 35S-labelled protein on gel filtered platelets, doubling concentrations, overnight at 4 C.
Assay [2] has the same target. Nature of the assay: binding study on platelets as for 35S-ADAMTS-18.

B1: ADAMTS-18 (ligand)
chain: SAGKSQKGLNVETLVVADKKMVEKHGKGNVTTYILTVMNMVSGLFKDGTIGSDINVVVVSLILLEQEPGGLLINHHADQSLNSFCQWQSALIGKNGKRHDHAILLTGFDICSWKNEPCDTLGFAPISGMCSKYRSCTINEDTGLGLAFTIAHESGHNFGMIHDGEGNPCRKAEGNIMSPTLTGNNGVFSWSSCSRQYLKKFLSTPQAGCLVDEPKQAGQYKYPDKLPGQIYDADTQCKWQFGAKAKLCSLGFVKDICKSLWCHRVGHRCETKFMPAAEGTVCGLSMWCRQGQCVKFGELGPRPIHGQWSAWSKWSECSRTCGGGVKFQERHCNNPKPQYGGLFCPGSSRIYQLCNINPCNENSLDFRAQQCAEYNSKPFRGWFYQWKPYTKVEEEDRCKLYCKAENFEFFFAMSGKVKDGTPCSPNKNDVCIDGVCELVGCDHELGSKAVSDACGVCKGDNSTCKFYKGLYLNQHKANEYYPVVLIPAGARSIEIQELQVSSSYLAVRSLSQKYYLTGGWSIDWPGEFPFAGTTFEYQRSFNRPERLYAPGPTNETLVFEILMQGKNPGIAWKYALPKVMNGTPPATKRPAYTWSIVQSECSVSCGGGYINVKAICLRDQNTQVNSSFCSAKTKPVTEPKICNAFSCPAYWMPGEWSTCSKACAGGQQSRKIQCVQKKPFQKEEAVLHSLCPVSTPTQVQACNSHACPPQWSLGPWSQCSKTCGRGVRKRELLCKGSAAETLPESQCTSLPRPELQEGCVLGRCPKNSRLQWVASSWSECSATCGLGVRKREMKCSEKGFQGKLITFPERRCRNIKKPNLDLEETCNRRACPAHPVYNMVAGWYSLPWQQCTVTCGGGVQTRSVHCVQQGRPSSSCLLHQKPPVLRACNTNFCPAPEKREDPSCVDFFNWCHLVPQHGVCNHKFYGKQCCKSCTRKI
modifications: 35S methionine (in the binding study)
In the case of B1, in assay [1], the binding result was “binds”.

B2: ADAMTS-18 C-terminal 385 amino acid fragment (AD-18F) (ligand)
chain: NETLVFEILMQGKNPGIAWKYALPKVMNGTPPATKRPAYTWSIVQSECSVSCGGGYINVKAICLRDQNTQVNSSFCSAKTKPVTEPKICNAFSCPAYWMPGEWSTCSKACAGGQQSRKIQCVQKKPFQKEEAVLHSLCPVSTPTQVQACNSHACPPQWSLGPWSQCSKTCGRGVRKRELLCKGSAAETLPESQCTSLPRPELQEGCVLGRCPKNSRLQWVASSWSECSATCGLGVRKREMKCSEKGFQGKLITFPERRCRNIKKPNLDLEETCNRRACPAHPVYNMVAGWYSLPWQQCTVTCGGGVQTRSVHCVQQGRPSSSCLLHQKPPVLRACNTNFCPAPEKREDPSCVDFFNWCHLVPQHGVCNHKFYGKQCCKSCTRKI
Regarding B2, the binding result in assay [2] is given as “binds”.
